PubChem BioAssay AID1159578, Peter MacCallum Cancer Centre, 2015
In all, the deposit lists about 18,000 reagents; below is an unselected part. Of all reagents, about 1,030 (5.7%) were called active. 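Inactive calls also include pools with fewer than 3300 nuclei, whose migration was not assessed.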 Raw values vary from plate to plate and are shown uncorrected. Not all columns of the deposit are shown.

Screen: 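Knock-downs that alter how fast lymphatic endothelial cells migrate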 (primary screen)
Cells: human lymphatic endothelial cells
Knock-down reagent: siRNA pool against human genes, 40 nM
Duration: 48 h after transfection
Detection: 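Cells stained with dye and imaged after a scratch; covered wound area and nuclei counted, duplicates averaged, migration set against mock wells and turned into a robust z-score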
Scale: migration robust z-score: higher = faster migration into the scratch; nuclei per well: higher = more cells in the well
Active means: 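Pools averaging fewer than 3300 nuclei are never called; remaining pools count as changed when migration robust z lies outside -2 to 2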
Meaning of the calls: active = migration changed; inactive = no migration change, or too few cells

What did the screen give for OR51Q1?
migration robust z-score: 2.15; nuclei per well, duplicate mean: 5168; outcome: active

How did the screen score MOXD1?
migration robust z-score: 0.91; nuclei per well, duplicate mean: 7484; outcome: inactive

How did the screen score GPAT4?
migration robust z-score: 0.68; nuclei per well, duplicate mean: 5004; outcome: inactive

Which result is listed for KIDINS220?
migration robust z-score: -0.05; nuclei per well, duplicate mean: 5220; outcome: inactive

For PPAN, how do the results read?
migration robust z-score: 0.55; nuclei per well, duplicate mean: 6288; outcome: inactive

For GK2, what does the deposit list?
migration robust z-score: 1.32; nuclei per well, duplicate mean: 7344; outcome: inactive

With NEK2, what was measured?
migration robust z-score: -0.6; nuclei per well, duplicate mean: 6152; outcome: inactive

Which result is listed for KRTAP5-7?
migration robust z-score: 1.44; nuclei per well, duplicate mean: 5646; outcome: inactive

Which result is listed for CCL27?
migration robust z-score: -0.2; nuclei per well, duplicate mean: 6189; outcome: inactive

With DCBLD2, what was measured?
migration robust z-score: -1.25; nuclei per well, duplicate mean: 5153; outcome: inactive

Which result is listed for APPL2?
migration robust z-score: 0.05; nuclei per well, duplicate mean: 4420; outcome: inactive

What did the screen give for MAP1B?
migration robust z-score: -0.82; nuclei per well, duplicate mean: 4738; outcome: inactive

For AIPL1, how do the results read?
migration robust z-score: -0.08; nuclei per well, duplicate mean: 3592; outcome: inactive

With ATOSA, what does the deposit list?
migration robust z-score: -0.08; nuclei per well, duplicate mean: 5359; outcome: inactive

How did the screen score FBXO34?
migration robust z-score: 1.19; nuclei per well, duplicate mean: 5724; outcome: inactive

With TENM3, how do the results read?
migration robust z-score: 0.24; nuclei per well, duplicate mean: 5974; outcome: inactive

For PEX13, what was measured?
migration robust z-score: -0.65; nuclei per well, duplicate mean: 5298; outcome: inactive

With CTNNA2, what was measured?
migration robust z-score: 0.88; nuclei per well, duplicate mean: 5344; outcome: inactive

What did the screen give for ZNF674?
migration robust z-score: -1.41; nuclei per well, duplicate mean: 5838; outcome: inactive

For PCDHGB6, what was measured?
migration robust z-score: 0.1; nuclei per well, duplicate mean: 6496; outcome: inactive

For ZC3H12A, how do the results read?
migration robust z-score: 0.08; nuclei per well, duplicate mean: 4944; outcome: inactive

Part of the list above in another layout:
Target gene	migration robust z-score	nuclei per well, duplicate mean	outcome
PPAN	0.55	6288	inactive
GK2	1.32	7344	inactive
